This is an account of results in patent EP1133517B1.

These are yes or no findings as the source states them, for the method shown. Some binding calls cover weakened binding; strength is not graded here.

For the assay, the target named is T1, endogenous NF-kB p65 subunit of 70Z/3 cells (mouse (endogenous in murine 70Z/3 cells)), Q04207.
T1 chain: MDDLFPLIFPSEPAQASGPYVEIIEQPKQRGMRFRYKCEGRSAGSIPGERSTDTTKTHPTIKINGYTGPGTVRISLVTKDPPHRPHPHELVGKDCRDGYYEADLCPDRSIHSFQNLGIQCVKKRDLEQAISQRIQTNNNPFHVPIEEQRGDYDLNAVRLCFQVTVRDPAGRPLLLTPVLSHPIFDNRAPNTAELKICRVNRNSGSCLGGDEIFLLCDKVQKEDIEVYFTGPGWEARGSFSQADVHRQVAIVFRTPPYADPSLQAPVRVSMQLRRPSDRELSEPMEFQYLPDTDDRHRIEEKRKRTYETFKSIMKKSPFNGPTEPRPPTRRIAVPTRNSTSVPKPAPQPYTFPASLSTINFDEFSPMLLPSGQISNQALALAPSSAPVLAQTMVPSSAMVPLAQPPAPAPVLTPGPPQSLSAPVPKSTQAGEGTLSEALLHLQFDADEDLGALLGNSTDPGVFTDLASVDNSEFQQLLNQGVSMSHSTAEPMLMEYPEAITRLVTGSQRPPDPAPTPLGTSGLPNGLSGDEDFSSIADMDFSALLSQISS
In words: EMSA supershift, nuclear extracts of LPS-treated 70Z/3 cells. The settings on record: remark: other sources report otherwise.

B1: endogenous NF-kB p50 subunit of 70Z/3 cells, P25799 1-431 (protein, mouse (endogenous in murine 70Z/3 cells), UniProt P25799 1-431, looked up)
chain: MADDDPYGTGQMFHLNTALTHSIFNAELYSPEIPLSTDGPYLQILEQPKQRGFRFRYVCEGPSHGGLPGASSEKNKKSYPQVKICNYVGPAKVIVQLVTNGKNIHLHAHSLVGKHCEDGVCTVTAGPKDMVVGFANLGILHVTKKKVFETLEARMTEACIRGYNPGLLVHSDLAYLQAEGGGDRQLTDREKEIIRQAAVQQTKEMDLSVVRLMFTAFLPDSTGSFTRRLEPVVSDAIYDSKAPNASNLKIVRMDRTAGCVTGGEEIYLLCDKVQKDDIQIRFYEEEENGGVWEGFGDFSPTDVHRQFAIVFKTPKYKDVNITKPASVFVQLRRKSDLETSEPKPFLYYPEIKDKEEVQRKRQKLMPNFSDSFGGGSGAGAGGGGMFGSGGGGGSTGSPGPGYGYSNYGFPPYGGITFHPGVTKSNAGVTHG
As to B1, the binding entry was “binds”.
